Drawing on publication PMC7819943, “Rice protein-binding microarrays: a tool to detect cis-acting elements near promoter regions in rice”, this text covers binding signal for 42 sequences.

By UniProt entry, the sequences of proteins in these tests, tags left out.
UniProt Q0JBA9, entry or part of it: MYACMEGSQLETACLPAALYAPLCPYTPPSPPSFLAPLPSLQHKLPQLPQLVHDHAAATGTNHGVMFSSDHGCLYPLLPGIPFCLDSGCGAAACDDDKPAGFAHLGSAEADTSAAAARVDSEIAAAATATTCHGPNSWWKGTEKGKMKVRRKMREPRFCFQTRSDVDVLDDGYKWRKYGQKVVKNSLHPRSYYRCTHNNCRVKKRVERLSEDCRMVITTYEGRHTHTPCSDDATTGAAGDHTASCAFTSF

The list shows a part of the results.

In this test the target is OsWRKY34 (Oryza sativa, UniProt Q0JBA9 1-250). As to the kind of experiment: protein-binding microarray (RPBM); PBS, 2% BSA, 51.3 ng/ul salmon testes DNA, 50 uM zinc acetate, 200 nM TF, 25 C, 1 h; high values mean tight binding. The settings on record: protein: recombinant; tags: N-terminal polyhistidine and DsRed monomer fusion (pET32a); label: CyDye5-dUTP incorporated in the synthesized complementary strand; 3' TTTTT single-stranded linker to array surface; dsDNA, one strand shown. A digest of the protocol:
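A custom Agilent array was converted to double-stranded form by primer extension with Cy5-dUTP and blocked with 2% BSA. Protein at 200 nM in PBS with 2% BSA, salmon testes DNA and 50 µM zinc acetate was applied for 1 h at 25 °C, followed by washing. The proteins were polyhistidine–DsRed N-terminal fusions of transcription factors, expressed in E. coli BL21-CodonPlus and Ni–NTA-purified. The binding signal is per-feature fluorescence intensity (arbitrary units) from an Axon 4000B scanner.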
Consider “CACAAGCATTTTTCATTTAATTTTTTTACCTATATGTTCTCGGAGTCACCTAGTGCAG”, for which the binding signal is 10800 fluorescence intensity (a.u.).
Under “TTCATCAGTTAATCGGCGTGTTCCTTTCACCATTGGTCCACGGAGTCACCTAGTGCAG” stands 8400 fluorescence intensity (a.u.).
Regarding “AACCCTCGCTTTCTTTGATAATCATTCCTAACTGCCTGGTCGGAGTCACCTAGTGCAG”, the binding signal was 8170 fluorescence intensity (a.u.).
Under “CAGGTTTGACCGACCTTTCAACCGATCGACGCTACCGCACCGGAGTCACCTAGTGCAG” stands 8460 fluorescence intensity (a.u.); under “GAATATCAAAACTTCACACACTTTTTGCACTGGGTTTTCACGGAGTCACCTAGTGCAG”, 8540 fluorescence intensity (a.u.).
Under “CTGGTGCCACCTTCTCCTGTTGGCTTCATCACCACAGCTCCGGAGTCACCTAGTGCAG” stands 9840 fluorescence intensity (a.u.); under “CAAGGTGAGCATATGCCGCGCGGGGATGGGGATGGATAGACGGAGTCACCTAGTGCAG”, 9040 fluorescence intensity (a.u.).
Under “TAGTTGTGGTGGACAAGTTTTCCAAATATGCTCATTTTCTCGGAGTCACCTAGTGCAG” stands 8090 fluorescence intensity (a.u.); under “AATACAGAACCACAGAGCAGGGGCAGGGCATTTCACAATACGGAGTCACCTAGTGCAG”, 10100 fluorescence intensity (a.u.); under “AAACACCTCGTCTCGCGGCGCTCACTCAGATTACTCACACCGGAGTCACCTAGTGCAG”, 9610 fluorescence intensity (a.u.).
In the case of “ATCTCCCGACCGACAATCCGGCCCCACCATCCAGACACCCCGGAGTCACCTAGTGCAG”, the binding signal was 10100 fluorescence intensity (a.u.).
Under “AACACCACTACCGCGGCCATATACTTCCCTCGATTCGACGCGGAGTCACCTAGTGCAG” stands 8180 fluorescence intensity (a.u.); under “TCATTATTAATTCCTCTCTCTCTCTCTGTCTCCTATCCCTCGGAGTCACCTAGTGCAG”, 12500 fluorescence intensity (a.u.).
Under “AGTGTAATTTTATTTGCAATACTTTTGTTATATACTATTTCGGAGTCACCTAGTGCAG” stands 8450 fluorescence intensity (a.u.); under “TGACACGGCACCAAACGCCTCTCGCTCCGCGACGTTAACTCGGAGTCACCTAGTGCAG”, 9140 fluorescence intensity (a.u.); under “AAGAACCTTTCCATCTACAGGGCTCTTTCTATTACGTACGCGGAGTCACCTAGTGCAG”, 8100 fluorescence intensity (a.u.).
Under “CAGTAGTGGGTATCTCTTCTCTTGGCTTCTTCCTGGAAATCGGAGTCACCTAGTGCAG” stands 8880 fluorescence intensity (a.u.); under “CAGATATCAATTCTGTTTGTTGCACTGTTCTTTTCTTCCACGGAGTCACCTAGTGCAG”, 9370 fluorescence intensity (a.u.); under “TCTTCCCTTGTTTATCCTGGATATTCCGGAGGACTTCGCTCGGAGTCACCTAGTGCAG”, 9830 fluorescence intensity (a.u.).
Regarding “ATTCTTTTTCTTTTTCTAATTAATCGTGTGTTAATTGTTTCGGAGTCACCTAGTGCAG”, the binding signal is 9430 fluorescence intensity (a.u.).
Under “ATCTCCTCTTAGCTCGATCGGCTTGCTAGCTCCTCGGCCACGGAGTCACCTAGTGCAG” stands 10000 fluorescence intensity (a.u.); under “TCCATTGGCCACACTCCGATTCCTCTCTTCCTTCCTAAAACGGAGTCACCTAGTGCAG”, 11500 fluorescence intensity (a.u.); under “TCTCTTCCATCTCACCCATCGCCGCCACAACTTGCCTCACCGGAGTCACCTAGTGCAG”, 8260 fluorescence intensity (a.u.).
Turning to “GTTAATCTATCGCTCCGTTTGATGTGTGGAGGTCTTTCCACGGAGTCACCTAGTGCAG”, the binding signal was 8080 fluorescence intensity (a.u.).
In the case of “CCTTCCGTTTGACACTGTTGACTTTTTTAAATATGTTTGACGGAGTCACCTAGTGCAG”, the binding signal is 16100 fluorescence intensity (a.u.).
Under “ATCAATTCAGTCGTTTGTATCCTCGAATCATTTTCATGTTCGGAGTCACCTAGTGCAG” stands 9840 fluorescence intensity (a.u.); under “CCTCCATTGCCAGTTGCTGCTCATCCTCATCTTCTCCATCCGGAGTCACCTAGTGCAG”, 8780 fluorescence intensity (a.u.).
Then “TTATCTTCGTTTGTTCTAAGTTACTTCTATAATATATATACGGAGTCACCTAGTGCAG”, with 8400 fluorescence intensity (a.u.); and “ATCACTGTCACCTTCACAACCATCACCACCAACTAAATCGCGGAGTCACCTAGTGCAG”, with 10000 fluorescence intensity (a.u.); and “TTTGGTCCGAGTTTCATTCACGTCGTTTAACCGCGAAATCCGGAGTCACCTAGTGCAG”, with 8930 fluorescence intensity (a.u.).
Under “ACAGAACCATGCATCTATGTGCTTATACTCTCCCATGCGACGGAGTCACCTAGTGCAG” stands 8660 fluorescence intensity (a.u.); under “CATCCACACGCACTTTACAACTTCGCTTTTCTTCGCATCGCGGAGTCACCTAGTGCAG”, 10400 fluorescence intensity (a.u.); under “GTTCCTCTCCTCCGCAAATGGCGACCAACCCCTTGACCCACGGAGTCACCTAGTGCAG”, 8070 fluorescence intensity (a.u.).
With “TTTCTCGATCTCTCCCGTTGCAAGTATGTTCGCCTGTTATCGGAGTCACCTAGTGCAG”, the binding signal was 14900 fluorescence intensity (a.u.).
Then “GCTTGGATTTTTTTTGTTGCTTTTGGTTGTTGTGATCCCTCGGAGTCACCTAGTGCAG”, with 11800 fluorescence intensity (a.u.); and “CTCCTCGCTTCCTTGTCCATCTTCAAGCTACCTTGCTTCTCGGAGTCACCTAGTGCAG”, with 8200 fluorescence intensity (a.u.).
Then “GATGATGGTGGTGTCCTTGCCGCGTCCTCTCTTCCATACCCGGAGTCACCTAGTGCAG”, with 10900 fluorescence intensity (a.u.).
On to “CACGTAGTTTTCCTGTATTTTTTGTTCCTTACAATTCAAGCGGAGTCACCTAGTGCAG”, for which the binding signal was 9520 fluorescence intensity (a.u.).
Under “GGTATTTGAGTATGTCATCCGTGTATGAGTCAAGTTCGTACGGAGTCACCTAGTGCAG” stands 8130 fluorescence intensity (a.u.); under “TAGCTACTTCCTTTTTTTCTTTTTCCCATCCCTCAAGCGACGGAGTCACCTAGTGCAG”, 8080 fluorescence intensity (a.u.); under “GTAGTCAGTGGTTGCTGGTGGTCTAAGAAGTTTGCTGTTGCGGAGTCACCTAGTGCAG”, 8710 fluorescence intensity (a.u.).
Under “CGGCGGGTTAGGGTTTGGGGTTGGGGTAAGGATAGGAGGGCGGAGTCACCTAGTGCAG” stands 14200 fluorescence intensity (a.u.).
